Source: PubChem BioAssay AID686937 (Drosophila RNAi Screening Center, 2013)
In all, the deposit lists about 23,000 reagents; shown is a random part of those with a known target gene and a result. 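Reduced-secretion tags in replicate 1 do not always agree with the z-scores; no criterion for assigning the tags was given.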 The numbers tell different reagents against one gene apart. Not all columns of the deposit are shown. No sequences are given here. Not stated in the record: the amount of reagent.

- Purpose: 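Genes in the fly needed for secretion of protein constitutively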 (primary screen)
- Cells: Drosophila S2 cells expressing secreted horseradish peroxidase
- Reagent: long dsRNA against Drosophila genes
- Timing: about 5.5 days (5 days dsRNA, then 12 h reporter induction)
- Challenge: reporter expression induced after 5 days of dsRNA, read 12 h later; inducer not stated
- Read-out: 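After 5 days of dsRNA and 12 h of reporter induction, medium peroxidase read by chemiluminescence and scored as per-plate z-score; higher values mean more reporter released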
- Scale: z-score: higher = more reporter secreted into medium

CG11360 (GeneID 43810) #1
- z-score, replicate 1: 0.33

CG11360 (GeneID 43810) #2
- z-score, replicate 1: 0.17

CG10887 (GeneID 42399)
- z-score, replicate 1: 0.46

CG33268 (GeneID 2768979)
- z-score, replicate 1: 0.4

beat-Ia (GeneID 34947)
- z-score, replicate 1: 0.73

CG32026 (GeneID 317829)
- z-score, replicate 1: 0.01

Sodh1 (GeneID 40836)
- z-score, replicate 1: 0.35

rho-6 (GeneID 34640)
- z-score, replicate 1: 0.07

Rh3 (GeneID 42398)
- z-score, replicate 1: 0.33

CG10164 (GeneID 42777)
- z-score, replicate 1: -0.6

Dok (GeneID 31667)
- z-score, replicate 1: -0.58

CG9281 (GeneID 32508)
- z-score, replicate 1: 0.2

CG13613 (GeneID 42910)
- z-score, replicate 1: 0.12

Edc3 (GeneID 39957)
- z-score, replicate 1: 0.28

CG15014 (GeneID 38533)
- z-score, replicate 1: 0.18

CG13041 (GeneID 39801)
- z-score, replicate 1: 0.1

Nipped-B (GeneID 3355136)
- z-score, replicate 1: 0.26

TpnC25D (GeneID 33752)
- z-score, replicate 1: 0.12

wls (GeneID 39259)
- z-score, replicate 1: 0.52

DopEcR (GeneID 38539)
- z-score, replicate 1: 0.27

CG32813 (GeneID 31089)
- z-score, replicate 1: 0.23

CG12983 (GeneID 40319)
- z-score, replicate 1: 0.25

CG30377 (GeneID 50252) #1
- z-score, replicate 1: 0.4

CG30377 (GeneID 50252) #2
- z-score, replicate 1: 0.42

CG3679 (GeneID 32591)
- z-score, replicate 1: 0.41

simj (GeneID 39212)
- z-score, replicate 1: 0.61

Eip78C (GeneID 40345)
- z-score, replicate 1: 0.07

Nipped-A (GeneID 35483) #1
- z-score, replicate 1: 0.57

Nipped-A (GeneID 35483) #2
- z-score, replicate 1: -1.06

Nipped-A (GeneID 35483) #3
- z-score, replicate 1: -0.53

Nipped-A (GeneID 35483) #4
- z-score, replicate 1: -1.08

Nipped-A (GeneID 35483) #5
- z-score, replicate 1: 0.75

CG4617 (GeneID 31657)
- z-score, replicate 1: 0.28

MESR4 (GeneID 36986)
- z-score, replicate 1: 0.46

Rif1 (GeneID 246445)
- z-score, replicate 1: -0.14

Tmem214 (GeneID 34514) #1
- z-score, replicate 1: 0.23

Tmem214 (GeneID 34514) #2
- z-score, replicate 1: 0.59

CG3704 (GeneID 31043) #1
- z-score, replicate 1: 0.41

CG3704 (GeneID 31043) #2
- z-score, replicate 1: 0.42

Sec24AB (GeneID 36025)
- z-score, replicate 1: -0.87
